Results on 41 compounds are retold here after paper PMC12040169 (PLOS Biology, 2025).

This is one part of the list.

The assay has as its system T1, CTL2-GFP (C. trachomatis L2/434/Bu, GFP-expressing).
T1 construct: L2/434/Bu, GFP-expressing
Also on record: species or system HeLa; Intracellular C. trachomatis growth in HeLa cells, bulk GFP fluorescence relative to DMSO. The note with it: bulk GFP, single well; 28.5 h, 10 µM; inhibitor.
For `Cn1c(=O)n(C)c2cc(CNC(=O)CC3COCCN3)ccc21` (centres unmarked) [CBK307252], the “% of control remaining” value came to 120.89%. With `CN1CCC(=NNC(=O)C(=O)NCc2ccco2)CC1` [CBK262341], the “% of control remaining” value came to 119.76%. As for `Cc1scc(C(=O)NCc2ccccn2)c1-c1ccccc1` [CBK268107], the figure is 112.101%. With `Cc1ccc2c(c1)C(=O)CC1(CCN(C(=O)OC(C)(C)C)CC1)O2` [CBK283599], the “% of control remaining” value came out at 93.1026%. The same measure for `O=C(O)C1=NN(c2ccccc2)C(=O)CC1` [CBK270176]: 153.874%; for `Cc1ccc(-c2nccnc2OCc2ccccn2)c(C)c1` [CBK106979]: 100%; for `COc1nc(Cl)nc(Oc2ccc(F)cc2)n1` [CBK011279]: 99.4055%. As for `Cc1cc(NC(=O)C2CCN(C(=O)c3cnc(N)c(Cl)c3)CC2)no1` [CBK305545], the figure is 109.032%; as for `O=C(CN1C(=O)c2ccccc2C1=O)Nc1cc(C(=O)O)cc(C(=O)O)c1` [CBK262024], 97.0704%; as for `CCCC/C=C/c1cncc(N(C)CCN(C)C)n1` [CBK065374], 199.751%. As to `O=C1NC2(CCCCCC2)C(=O)N1Cc1cnn(-c2ccccc2)n1` [CBK305571], the “% of control remaining” value came to 116.898%.

Consider `COCCN1CCN(C(=O)[C@@H]2Cc3c[nH]c4cccc(c34)[C@H](CC(C)C)N2)CC1` [CBK289419], for which the “% of control remaining” value turned out to be 136.391%.

`NS(=O)(=O)c1ccc(CCNC2CC(=O)N(Cc3cccs3)C2=O)cc1` (centres unmarked) [CBK266579]: the “% of control remaining” value stood at 188.787%. The same measure for `O=c1c([N+](=O)[O-])c(O)c2ccccc2n1-c1ccccc1` [CBK115316]: 107.491%.

Take `O=C(C1=C(O)C(=O)N(CCCn2ccnc2)C1c1ccncc1)c1ccc(F)cc1` (centres unmarked) [CBK264601]: the “% of control remaining” value is given as 123.045%. On to `CC(=O)c1ccc(NC(=O)C2C3C=CC(C3=C(c3ccccc3)c3ccccc3)C2C(=O)O)cc1` (centres unmarked) [CBK265696], for which the “% of control remaining” value turned out to be 126.286%. Consider `COc1nccnc1N1CCN(Cc2ccc(Cl)c(Cl)c2)CC1` [CBK084209], for which the “% of control remaining” value is given as 117.234%. As to `O=C(O)CCC(=O)Nc1cc(C(F)(F)F)ccc1N1CCCC1` [CBK057434], the “% of control remaining” value worked out at 104.393%. Consider `Cc1nn2c(CN(C(=O)c3ccccc3)c3ccccc3)nnc2c2ccccc12` [CBK268084], for which the “% of control remaining” value was found to be 89.5253%. The same measure for `O=C(NCCCN1CCOCC1)Nc1cccc(Cl)c1Cl` [CBK016286]: 153.736%; for `O=C(COc1ccccc1)Nc1cnc(-c2ccc(F)cc2)c(-c2ccsc2)n1` [CBK036958]: 109.128%; for `CN1CCN(S(=O)(=O)c2ccc3c4c(cccc24)C(=O)N3)CC1` [CBK266647]: 138.598%. The same measure for `Cc1nn(CC(=O)N2CCC(C)CC2)c(=O)c2cc3ccsc3n12` [CBK284081]: 136.973%. On to `CCc1nccn1C(C)C(=O)Nc1ccc2ncn(C)c2c1` (centres unmarked) [CBK281745], for which the “% of control remaining” value was determined as 116.463%.

As to `COc1ccc(OC)c(S(=O)(=O)N2CCCC(C(=O)O)C2)c1` (centres unmarked) [CBK269225], the “% of control remaining” value is on record as 133.391%. The same measure for `Cc1ccc2[nH]c(SCC(=O)NC3CCCC3)nc2c1` [CBK057983]: 93.0649%; for `O=C(CN1CCC(c2ccccc2F)CC1)Nc1nccs1` [CBK283579]: 98.5572%. As for `O=C1c2ccccc2C(=O)N1CN(CCc1ccc(Cl)cc1)CN1C(=O)c2ccccc2C1=O` [CBK225934], the figure is 100%; as for `Nc1nc2c([C@H]3C[C@@H](O)[C@@H](CO)O3)c[nH]c2c(=O)[nH]1` [CBK201194], 147.489%. Consider `c1ccc2c(c1)CCN2c1ncnc2[nH]cnc12` [CBK291104], for which the “% of control remaining” value is recorded as 150.596%. The same measure for `CN(C)c1ccc(-c2nc(N(C)C)n(C)n2)cn1` [CBK306858]: 140.081%; for `Cc1ccccc1-n1sc(=O)n(Cc2ccc(F)cc2)c1=O` [CBK113605]: 83.6272%; for `CCCCCNC(=O)N1CCN(CC(=O)OCC)CC1` [CBK044786]: 103.595%. As for `Cn1c(NCc2ccccn2)nc2ccccc21` [CBK268544], the “% of control remaining” value came to 118.918%.

For `C=C(C)Cn1c(=O)c2c(nc3[nH]c(C)c(C)n32)n(C)c1=O` [CBK288184], the “% of control remaining” value amounted to 116.602%. Regarding `O=C(N/N=C/C=N/NC(=O)c1ccccc1O)c1ccccc1O` [CBK261430], the “% of control remaining” value was 100%. The same measure for `CCC(CC)n1nc(C(=O)NC2(C#N)CCSC2)cc1C` (centres unmarked) [CBK305111]: 102.95%; for `O=C(c1sc2cc(Cl)ccc2c1Cl)N1CCN(Cc2ccc3c(c2)OCO3)CC1` [CBK074431]: 86.6502%; for `N#Cc1ccc(-c2cnc(N)c(-c3ccccc3Cl)n2)cc1` [CBK113660]: 126.019%. The same measure for `Cc1cc(S(=O)(=O)NCCCn2ccnc2)c(C)cc1Br` [CBK269525]: 97.7844%; for `Cc1ccc([N+](=O)[O-])cc1S(=O)(=O)NCC(=O)O` [CBK266234]: 178.775%.
